# Values joined by “and” are separate entries in the source; they are usually repeats but may differ in a detail not shown here. Equal entries are not always repeated. The shares of active, inactive and inconclusive entries below differ from those in the screen. For some assays here: Where the call is inconclusive, the potency comes from a doubtful curve fit. A structure can be active in one record and inactive in another. Active and inactive are the calls of the source. Rule for the calls: active = hit-call score of the fitted dose curve at least 0.9, where 1 is the maximum; inconclusive = response in the unintended direction; inactive = score below 0.9.
# By UniProt entry, the sequences of proteins in these tests, tags left out. Where a name states a change or a piece, a line headed by the entry shows the natural chain unless it says otherwise.
# UniProt P19793: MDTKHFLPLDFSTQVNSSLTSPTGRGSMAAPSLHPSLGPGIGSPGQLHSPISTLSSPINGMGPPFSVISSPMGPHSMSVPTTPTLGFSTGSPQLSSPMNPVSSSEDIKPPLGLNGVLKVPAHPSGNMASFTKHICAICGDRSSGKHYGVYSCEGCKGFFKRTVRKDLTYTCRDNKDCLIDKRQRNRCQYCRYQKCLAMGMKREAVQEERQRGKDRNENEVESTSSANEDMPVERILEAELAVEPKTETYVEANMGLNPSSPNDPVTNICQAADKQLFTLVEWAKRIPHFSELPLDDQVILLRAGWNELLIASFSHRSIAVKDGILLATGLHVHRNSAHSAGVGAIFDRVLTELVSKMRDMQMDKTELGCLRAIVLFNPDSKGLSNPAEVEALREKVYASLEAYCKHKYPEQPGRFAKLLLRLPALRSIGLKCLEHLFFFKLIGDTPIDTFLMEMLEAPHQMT
# UniProt P04637, whole entry, looked up: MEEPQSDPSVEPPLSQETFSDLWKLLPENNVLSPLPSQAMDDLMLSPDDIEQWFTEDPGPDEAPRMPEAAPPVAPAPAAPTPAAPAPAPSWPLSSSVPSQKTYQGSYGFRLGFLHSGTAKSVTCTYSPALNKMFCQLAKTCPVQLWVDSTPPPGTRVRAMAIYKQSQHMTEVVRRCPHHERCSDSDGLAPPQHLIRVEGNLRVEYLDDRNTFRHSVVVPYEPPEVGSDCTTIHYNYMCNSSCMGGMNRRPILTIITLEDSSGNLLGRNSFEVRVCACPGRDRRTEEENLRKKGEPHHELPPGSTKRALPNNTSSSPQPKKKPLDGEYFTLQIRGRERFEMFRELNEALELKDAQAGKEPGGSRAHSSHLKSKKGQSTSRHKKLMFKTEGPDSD
# Assays:
# [1] = target: Retinoic acid receptor RXR-alpha (Homo sapiens) (UniProt P19793); assay: OT_NURR1_NURR1RXRa_0480: Odyssey Thera (OT) 8-hour HEK293T Protein Complementation Assay for Nurr1/retinoid X receptor (RXR) (AID 2283385)
# How it was run: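 Interaction of Nurr1 with RXRα read as reconstituted reporter fluorescence in a HEK293T fragment-complementation system, 8 h post-treatment; increase over DMSO baseline analysed.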
# [2] = target: Retinoic acid receptor RXR-alpha (Homo sapiens) (UniProt P19793); assay: OT_NURR1_NURR1RXRa_1440: Odyssey Thera (OT) 24-hour HEK293T Protein Complementation Assay for Nurr1/retinoid X receptor (RXR) (AID 2283386)
# How it was run: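 Gain in fluorescence, fitted relative to DMSO, reflects Nurr1–RXRα association in HEK293T cells after 24 h dosing. Bait and prey are each linked to a reporter-protein fragment that reassembles on interaction.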
# [3] = ATG_XTT_Cytotoxicity: Cytotoxicity Assessment in the Attagene TRANS-FACTORIAL HepG2 Assay (AID 2283584);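 for AC50: XTT signal for cell number as viability in transfected HepG2 cells; cells exposed to compound for 24 h before reading; active means loss of viability signal versus DMSO baseline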
# How it was run: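 HepG2 cells transiently transfected with GAL4-UAS multiple reporter units, dosed 24 h; cytotoxicity read by XTT as loss of signal versus DMSO baseline.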
# [4] = TOX21_p53_BLA_p2_viability: Viability Assessment in the Tox21 HCT-116 p53 Agonism Beta-lactamase Assay, Phase 2 (AID 2283591);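 note: actives lower the ATP signal meaning cytotoxicity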
# How it was run: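 HCT116 p53-bla cells, 4000/well, dosed after 5 h plating (217-fold dilution of DMSO stocks) and incubated 16 h at 37C. Viability taken as cellular ATP by CellTiter-Glo luminescence after 30 min RT; signal loss marks cytotoxicity.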
# [5] = TOX21_p53_BLA_p3_viability: Viability Assessment in the Tox21 HCT-116 p53 Agonism Beta-lactamase Assay, Phase 3 (AID 2283593);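 note: cells exposed to compound for 16 h before reading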
# How it was run: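 HCT116 cells, 4000/well, dosed 5 h after plating by pin transfer (217-fold dilution from DMSO stock) and incubated 16 h at 37C, 5% CO2. Viability read as ATP luminescence with CellTiter-Glo after 30 min at room temperature.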
# [6] = TOX21_p53_BLA_p4_viability: Viability Assessment in the Tox21 HCT-116 p53 Agonism Beta-lactamase Assay, Phase 4 (AID 2283597);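 note: hits lower the luminescence signal meaning cytotoxicity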
# How it was run: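 4000 HCT116 cells per well; 5 h attachment; compounds from DMSO, 217-fold dilution; 16 h at 37C. Then CCF4-AM, 2 h RT, followed by CellTiter-Glo, 30 min RT, luminescence. Decrease = cytotoxicity.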
# [7] = target: Cellular tumor antigen p53 (Homo sapiens) (UniProt P04637); assay: TOX21_p53_BLA_p5_ratio: Tox21 HCT-116 p53 Agonism Beta-lactamase Assay, Ratio, Phase 5 (AID 2283599)
# How it was run: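 HCT-116 p53-bla cells (4000/well) plated 5 h, dosed with compound (217-fold DMSO dilution) for 16 h at 37 C; CCF4-AM substrate 2 h at room temperature. Activity is the 460/530 nm emission ratio (405 nm excitation), fitted in gain-of-signal direction versus DMSO.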
# [8] = TOX21_p53_BLA_p5_viability: Viability Assessment in the Tox21 HCT-116 p53 Agonism Beta-lactamase Assay, Phase 5 (AID 2283600)
# How it was run: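 Decreased CellTiter-Glo luminescence denotes lost viability. Exposure: 16 h at 37C, 5% CO2, with compounds from DMSO stocks diluted 217-fold in wells of 4000 cells.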
# [9] = target: Cellular tumor antigen p53 (Homo sapiens) (UniProt P04637); assay: TOX21_p53_BLA_p4_ratio: Tox21 HCT-116 p53 Agonism Beta-lactamase Assay, Ratio, Phase 4 (AID 2283601)
# How it was run: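 HCT-116 p53 beta-lactamase reporter cells (4000/well) preincubated 5 h, then compound (217-fold dilution of DMSO stock) for 16 h at 37C. CCF4-AM substrate added 2 h at room temperature; 460/530 nm emission ratio fitted upward versus DMSO.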
# [10] = Tanguay_ZF_120hpf_AXIS_legacy: (Legacy) Oregon State University Tanguay Lab 120 Hour Post-fertilization zebrafish Assay for Body Axis Malformation (AID 2283635)
# How it was run: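 Dechorionated wild-type Tropical 5D zebrafish embryos, one per well, statically exposed from 6 hpf to 120 hpf at 28C in 0.64% DMSO final. Body axis malformation scored present/absent by brightfield microscopy at 120 hpf; dead embryos excluded.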
# [11] = Tanguay_ZF_120hpf_SNOU_legacy: (Legacy) Oregon State University Tanguay Lab 120 Hour Post-fertilization zebrafish Assay for Snout Malformation (AID 2283637)
# How it was run: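 Binary brightfield scoring of snout malformation at 120 hpf. Dechorionated 5D wild-type embryos, one per well, static exposure from 6 hpf at 28C, sealed and dark; final DMSO 0.64% (vol/vol), DMSO as baseline; 5uM trimethyltin chloride positive control.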
# [12] = target: Cellular tumor antigen p53 (Homo sapiens) (UniProt P04637); assay: TOX21_p53_BLA_p2_ratio: Tox21 HCT-116 p53 Agonism Beta-lactamase Assay, Ratio, Phase 2 (AID 2283592)
# How it was run: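 First, HCT116 reporter cells settle for 5 h at 37C. Next, DMSO compound solutions are pinned in (217-fold dilution) and left 16 h. Finally, CCF4-AM substrate is loaded 2 h at room temperature and the 460/530 nm ratio read.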
# [13] = target: Cellular tumor antigen p53 (Homo sapiens) (UniProt P04637); assay: TOX21_p53_BLA_p3_ratio: Tox21 HCT-116 p53 Agonism Beta-lactamase Assay, Ratio, Phase 3 (AID 2283596)
# How it was run: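 Cells were seeded at 4000/well, rested 5 h at 37C, then dosed with DMSO compound solutions (217-fold dilution) for 16 h. CCF4-AM substrate was loaded for 2 h at room temperature, and the 460/530 nm emission ratio was fitted for gain of signal versus DMSO.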
# [14] = Tanguay_ZF_120hpf_YSE_legacy: (Legacy) Oregon State University Tanguay Lab 120 Hour Post-fertilization zebrafish Assay for Yolk Sac Edema (AID 2283634);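 note: actives raise the incidence of yolk sac edema above the DMSO baseline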
# How it was run: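 Dechorionated Tropical 5D wild-type zebrafish embryos were exposed statically, one per well, from 6 to 120 hpf at 28C in 0.64% DMSO. Yolk sac edema was scored present/absent by brightfield at 120 hpf, and dead embryos were excluded.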
# [15] = Tanguay_ZF_120hpf_EYE_legacy: (Legacy) Oregon State University Tanguay Lab 120 Hour Post-fertilization zebrafish Assay for Eye Malformation (AID 2283636);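 note: binary presence or absence of eye malformation scored by brightfield in 120 hpf larvae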
# How it was run: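 5D wild-type embryos, pronase-dechorionated at 4 hpf; static exposure 6–120 hpf, 28C, dark; DMSO 0.64% final; 5uM trimethyltin chloride positive control. Binary eye-defect scoring at 120 hpf; dead embryos not scored.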
# [16] = Tanguay_ZF_120hpf_JAW_legacy: (Legacy) Oregon State University Tanguay Lab 120 Hour Post-fertilization zebrafish Assay for Jaw Malformation (AID 2283638);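 note: active means more embryos with jaw malformation than DMSO controls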
# How it was run: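 Dechorionated Tropical 5D wild-type zebrafish embryos, one per well, exposed statically from 6 hpf to 120 hpf at 28C in 0.64% DMSO. Jaw malformation was scored by brightfield microscopy as present or absent. It was not scored in dead embryos.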
structure (smiles),measurement,setting,value
CCCOC(=O)c1cc(O)c(O)c(O)c1,outcome,[1],inactive
same,AC50,[2],inconclusive: 85.2 µM
same,AC50,[3],inconclusive: 1.27 µM
same,AC50,[4],inconclusive: 2.71 µM and inconclusive: 25.1 nM
same,AC50,[5],inconclusive: 0.618 µM
same,outcome,[6],inactive
same,AC50,[7],inconclusive: 23 µM
same,AC50,[8],inconclusive: 13.8 µM and inconclusive: 1.42 µM
C=C1CC[C@H]2C[C@@H]1C2(C)C,outcome,[1],inactive
same,AC50,[2],inconclusive: 50 µM
same,outcome,[3],inactive
C=C(C)C(N)=O,AC50,[1],inconclusive: 50 µM
same,AC50,[2],inconclusive: 2.2 µM
same,outcome,[3],inactive
same,AC50,[4],inconclusive: 86.9 µM
same,outcome,[5],inactive
same,AC50,[6],inconclusive: 9.21 µM
same,outcome,[6],inactive
same,AC50,[8],inconclusive: 46.4 µM
same,outcome,[8],inactive
same,AC50,[9],inconclusive: 46.4 µM
same,outcome,[10],inactive
same,AC50,[11],inconclusive: 4.76 µM
O=c1c(-c2ccc(O)cc2)coc2cc(O)ccc12,AC50,[1],active: 50 µM
same,AC50,[2],active: 14.4 µM and active: 27 µM
same,AC50,[3],inconclusive: 100 µM
same,outcome,[4],inactive
same,AC50,[5],inconclusive: 45.7 µM
same,AC50,[7],inconclusive: 45.7 µM
CN(C)c1ccc(C(=C2C=CC(=[N+](C)C)C=C2)c2ccc(N(C)C)cc2)cc1,AC50,[1],inconclusive: 3.46 µM and inconclusive: 7.58 µM
same,AC50,[2],inconclusive: 10.9 µM and inconclusive: 2.03 µM
same,AC50,[3],active: 12.3 µM
same,AC50,[4],active: 23.6 µM and active: 19.1 µM and active: 23 µM
same,AC50,[12],active: 33.6 µM and active: 32.8 µM and active: 7.06 µM
same,AC50,[5],active: 56.6 µM and active: 17.3 µM and active: 20.4 µM
same,AC50,[13],active: 9.02 µM and active: 31.5 µM and active: 8.23 µM
same,AC50,[6],active: 28.8 µM and active: 20.6 µM and active: 14.3 µM
same,AC50,[7],active: 47.3 µM and active: 34 µM and active: 25.4 µM
same,AC50,[8],active: 46.1 µM and active: 27 µM and active: 14.5 µM
same,AC50,[9],active: 52.5 µM and active: 51.7 µM and active: 30.8 µM
same,AC50,[14],inconclusive: 3.23 µM
same,AC50,[15],inconclusive: 0.292 µM
same,AC50,[11],inconclusive: 0.0948 µM
same,AC50,[16],inconclusive: 0.176 µM
CCc1cc(Cc2cc(CC)c(N)c(CC)c2)cc(CC)c1N,AC50,[1],active: 11.5 µM
same,AC50,[2],inconclusive: 79.2 µM
same,outcome,[3],inactive
same,outcome,[12],inactive
same,AC50,[6],active: 68 µM
CO[Si](C)(C)OC,outcome,[1],inactive
same,AC50,[2],inconclusive: 50 µM
same,outcome,[3],inactive
same,AC50,[4],inconclusive: 46.1 µM
same,AC50,[5],inconclusive: 46.1 µM
same,AC50,[13],inconclusive: 46.1 µM
same,outcome,[8],inactive
CCN(CC)CCOc1ccc(C(=C(Cl)c2ccccc2)c2ccccc2)cc1,AC50,[1],inconclusive: 24.2 µM and active: 9.55 µM and inconclusive: 42 µM
same,AC50,[2],inconclusive: 16.6 µM and inconclusive: 42 µM
same,AC50,[3],active: 28 µM [middle of 5 runs]
same,AC50,[11],inconclusive: 16.9 µM
CCCCCCCCCC=CCC1CC(=O)OC1=O (stereo not drawn),outcome,[1],inactive
same,AC50,[2],inconclusive: 50 µM
same,outcome,[3],inactive
same,AC50,[7],inconclusive: 46.3 µM
same,AC50,[8],inconclusive: 46.3 µM
same,outcome,[8],inactive
CCCCCCC1CCC(=O)O1 (stereo not drawn),AC50,[1],inconclusive: 51 µM
same,AC50,[2],inconclusive: 2.24 µM
same,outcome,[3],inactive
same,outcome,[4],inactive
same,AC50,[5],inconclusive: 47 µM
same,AC50,[8],inconclusive: 47 µM
same,AC50,[9],inconclusive: 47 µM
Oc1ccc(Cl)cc1Cc1cc(Cl)ccc1O,AC50,[1],active: 11.7 µM
same,AC50,[2],active: 11.2 µM
same,AC50,[3],active: 27 µM
CCCCCCCCCCO,outcome,[1],inactive
same,AC50,[2],inconclusive: 50 µM
same,outcome,[4],inactive
same,AC50,[12],inconclusive: 46.2 µM
same,AC50,[5],inconclusive: 4.97 µM and inconclusive: 46.2 µM
same,AC50,[6],inconclusive: 46.1 µM and inconclusive: 46.2 µM
same,AC50,[8],inconclusive: 46.1 µM
same,outcome,[8],inactive
CCCCc1ccc(N)cc1,AC50,[1],inconclusive: 50 µM
same,outcome,[2],inactive
same,outcome,[4],inactive
same,AC50,[12],inconclusive: 46.1 µM
same,outcome,[13],inactive
same,outcome,[6],inactive
same,AC50,[8],inconclusive: 46.1 µM
C=C(C)C(=O)O,outcome,[1],inactive
same,AC50,[2],inconclusive: 50 µM
same,AC50,[4],inconclusive: 14.3 µM
same,outcome,[5],inactive
same,AC50,[6],inconclusive: 46.8 µM
same,outcome,[6],inactive
same,outcome,[7],inactive

# Two entries from above, with bars between the fields.
structure (smiles) | measurement | setting | value
CCCCCCCCCCO | AC50 | [2] | inconclusive: 50 µM
same | outcome | [4] | inactive

# An excerpt of these results, with tabs:
structure (smiles)	measurement	setting	value
C=C1CC[C@H]2C[C@@H]1C2(C)C	outcome	[3]	inactive
CCc1cc(Cc2cc(CC)c(N)c(CC)c2)cc(CC)c1N	AC50	[2]	inconclusive: 79.2 µM
CCN(CC)CCOc1ccc(C(=C(Cl)c2ccccc2)c2ccccc2)cc1	AC50	[2]	inconclusive: 16.6 µM and inconclusive: 42 µM
same	AC50	[11]	inconclusive: 16.9 µM
CCCCCCCCCCO	AC50	[8]	inconclusive: 46.1 µM

# Reference: PubChem BioAssay (EPA / NIEHS)
